In the supplement of paper PMC10849652:
This is one part of the list.

Amino acid sequences for entries named in this document (tags omitted). A change or cut given only in a name is not applied to a line headed by its entry.
UniProt Q14435: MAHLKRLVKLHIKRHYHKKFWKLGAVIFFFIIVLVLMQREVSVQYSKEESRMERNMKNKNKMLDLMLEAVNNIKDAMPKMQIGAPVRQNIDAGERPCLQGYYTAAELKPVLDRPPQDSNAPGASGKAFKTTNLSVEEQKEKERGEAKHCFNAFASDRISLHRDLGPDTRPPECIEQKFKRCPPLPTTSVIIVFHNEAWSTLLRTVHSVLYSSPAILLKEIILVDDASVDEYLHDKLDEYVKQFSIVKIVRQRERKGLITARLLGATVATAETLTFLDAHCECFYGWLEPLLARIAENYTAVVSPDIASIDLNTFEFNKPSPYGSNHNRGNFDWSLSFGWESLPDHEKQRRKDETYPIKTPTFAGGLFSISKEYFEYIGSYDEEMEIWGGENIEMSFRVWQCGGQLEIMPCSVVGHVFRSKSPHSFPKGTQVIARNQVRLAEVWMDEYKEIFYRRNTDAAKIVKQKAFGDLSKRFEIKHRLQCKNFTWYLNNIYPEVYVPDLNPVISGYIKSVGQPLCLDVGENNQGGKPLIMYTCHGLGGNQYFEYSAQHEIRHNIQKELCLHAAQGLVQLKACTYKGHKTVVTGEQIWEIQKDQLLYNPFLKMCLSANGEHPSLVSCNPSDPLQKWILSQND
UniProt P27469: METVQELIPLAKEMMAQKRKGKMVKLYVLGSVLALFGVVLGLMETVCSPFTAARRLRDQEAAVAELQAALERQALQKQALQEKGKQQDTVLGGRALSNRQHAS
UniProt P22083, whole entry, looked up: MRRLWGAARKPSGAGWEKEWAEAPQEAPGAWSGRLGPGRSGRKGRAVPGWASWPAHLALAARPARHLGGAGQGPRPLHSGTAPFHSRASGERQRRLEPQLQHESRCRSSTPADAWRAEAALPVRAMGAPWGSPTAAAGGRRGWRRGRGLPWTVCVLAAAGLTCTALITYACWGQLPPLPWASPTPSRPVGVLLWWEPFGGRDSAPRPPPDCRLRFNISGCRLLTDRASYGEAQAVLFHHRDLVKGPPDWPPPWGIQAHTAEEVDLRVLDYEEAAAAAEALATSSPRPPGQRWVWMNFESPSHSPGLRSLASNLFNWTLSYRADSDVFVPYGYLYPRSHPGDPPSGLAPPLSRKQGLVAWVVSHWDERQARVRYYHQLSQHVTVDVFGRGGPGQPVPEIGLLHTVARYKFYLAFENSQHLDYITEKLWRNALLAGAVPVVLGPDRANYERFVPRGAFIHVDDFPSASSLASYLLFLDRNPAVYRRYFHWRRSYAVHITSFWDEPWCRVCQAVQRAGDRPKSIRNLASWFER
UniProt P50440: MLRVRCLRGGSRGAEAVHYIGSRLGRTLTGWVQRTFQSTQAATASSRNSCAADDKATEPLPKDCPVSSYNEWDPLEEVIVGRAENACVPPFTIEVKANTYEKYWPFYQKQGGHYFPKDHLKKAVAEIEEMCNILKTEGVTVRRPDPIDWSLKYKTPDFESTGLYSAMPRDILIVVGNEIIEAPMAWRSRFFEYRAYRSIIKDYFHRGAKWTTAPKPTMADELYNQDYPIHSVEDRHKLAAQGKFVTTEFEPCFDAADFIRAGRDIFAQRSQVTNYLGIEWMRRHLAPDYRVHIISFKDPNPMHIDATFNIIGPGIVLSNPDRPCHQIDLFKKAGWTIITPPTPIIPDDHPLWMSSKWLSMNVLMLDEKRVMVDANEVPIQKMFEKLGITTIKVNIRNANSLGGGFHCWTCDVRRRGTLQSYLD
UniProt Q5VTD9: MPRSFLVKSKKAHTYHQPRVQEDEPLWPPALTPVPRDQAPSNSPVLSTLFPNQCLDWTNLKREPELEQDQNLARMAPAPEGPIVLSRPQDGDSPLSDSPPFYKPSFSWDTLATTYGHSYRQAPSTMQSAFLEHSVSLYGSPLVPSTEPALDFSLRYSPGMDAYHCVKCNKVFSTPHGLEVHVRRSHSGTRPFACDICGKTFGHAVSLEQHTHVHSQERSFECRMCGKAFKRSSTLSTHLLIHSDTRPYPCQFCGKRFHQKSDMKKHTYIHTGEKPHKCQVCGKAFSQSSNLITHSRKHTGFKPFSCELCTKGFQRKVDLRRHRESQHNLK
UniProt Q9UET6: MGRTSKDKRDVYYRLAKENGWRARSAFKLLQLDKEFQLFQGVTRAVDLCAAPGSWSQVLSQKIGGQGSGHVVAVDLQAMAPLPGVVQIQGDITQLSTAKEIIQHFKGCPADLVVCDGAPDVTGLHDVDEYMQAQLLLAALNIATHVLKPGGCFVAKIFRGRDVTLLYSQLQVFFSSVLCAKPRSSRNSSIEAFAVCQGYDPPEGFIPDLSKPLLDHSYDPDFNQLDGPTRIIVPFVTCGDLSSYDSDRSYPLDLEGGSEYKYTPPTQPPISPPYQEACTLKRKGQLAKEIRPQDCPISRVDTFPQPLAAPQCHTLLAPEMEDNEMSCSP
UniProt Q14C86: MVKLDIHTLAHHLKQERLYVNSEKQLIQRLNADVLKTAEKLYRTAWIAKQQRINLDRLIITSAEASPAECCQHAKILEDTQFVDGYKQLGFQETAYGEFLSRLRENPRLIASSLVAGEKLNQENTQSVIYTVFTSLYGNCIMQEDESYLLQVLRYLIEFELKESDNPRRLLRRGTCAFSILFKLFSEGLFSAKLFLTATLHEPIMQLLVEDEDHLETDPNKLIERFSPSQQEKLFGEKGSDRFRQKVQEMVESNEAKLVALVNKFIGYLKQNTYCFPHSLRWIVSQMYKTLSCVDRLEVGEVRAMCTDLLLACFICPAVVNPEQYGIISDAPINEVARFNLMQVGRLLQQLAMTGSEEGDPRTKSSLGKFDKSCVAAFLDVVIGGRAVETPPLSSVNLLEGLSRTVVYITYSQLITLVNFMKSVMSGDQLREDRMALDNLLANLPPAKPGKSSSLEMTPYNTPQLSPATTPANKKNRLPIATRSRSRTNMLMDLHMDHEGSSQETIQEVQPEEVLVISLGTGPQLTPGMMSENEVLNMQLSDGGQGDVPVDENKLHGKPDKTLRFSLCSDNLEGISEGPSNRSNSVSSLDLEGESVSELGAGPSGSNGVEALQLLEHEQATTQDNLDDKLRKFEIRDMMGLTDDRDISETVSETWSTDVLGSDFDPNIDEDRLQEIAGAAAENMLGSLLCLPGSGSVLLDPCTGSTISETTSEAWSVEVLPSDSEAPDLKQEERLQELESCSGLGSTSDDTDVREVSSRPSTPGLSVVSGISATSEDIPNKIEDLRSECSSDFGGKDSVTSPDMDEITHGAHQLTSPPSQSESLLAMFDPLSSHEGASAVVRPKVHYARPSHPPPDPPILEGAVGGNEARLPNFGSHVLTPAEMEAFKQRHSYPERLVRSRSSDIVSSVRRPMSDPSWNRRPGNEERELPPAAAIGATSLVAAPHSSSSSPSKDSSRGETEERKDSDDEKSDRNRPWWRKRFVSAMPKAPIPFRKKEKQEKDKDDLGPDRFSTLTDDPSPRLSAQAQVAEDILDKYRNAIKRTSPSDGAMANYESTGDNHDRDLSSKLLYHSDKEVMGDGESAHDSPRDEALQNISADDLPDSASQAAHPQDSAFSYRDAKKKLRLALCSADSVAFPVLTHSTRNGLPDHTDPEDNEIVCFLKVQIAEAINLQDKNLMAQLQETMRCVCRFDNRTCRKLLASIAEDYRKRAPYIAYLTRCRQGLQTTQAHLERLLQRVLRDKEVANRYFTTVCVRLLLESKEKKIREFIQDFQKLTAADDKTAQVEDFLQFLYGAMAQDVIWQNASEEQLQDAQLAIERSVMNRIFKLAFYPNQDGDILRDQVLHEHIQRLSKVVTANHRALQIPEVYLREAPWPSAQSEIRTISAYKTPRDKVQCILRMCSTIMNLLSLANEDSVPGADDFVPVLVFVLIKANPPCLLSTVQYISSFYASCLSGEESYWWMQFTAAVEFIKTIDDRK
UniProt Q9UM11, whole entry, looked up: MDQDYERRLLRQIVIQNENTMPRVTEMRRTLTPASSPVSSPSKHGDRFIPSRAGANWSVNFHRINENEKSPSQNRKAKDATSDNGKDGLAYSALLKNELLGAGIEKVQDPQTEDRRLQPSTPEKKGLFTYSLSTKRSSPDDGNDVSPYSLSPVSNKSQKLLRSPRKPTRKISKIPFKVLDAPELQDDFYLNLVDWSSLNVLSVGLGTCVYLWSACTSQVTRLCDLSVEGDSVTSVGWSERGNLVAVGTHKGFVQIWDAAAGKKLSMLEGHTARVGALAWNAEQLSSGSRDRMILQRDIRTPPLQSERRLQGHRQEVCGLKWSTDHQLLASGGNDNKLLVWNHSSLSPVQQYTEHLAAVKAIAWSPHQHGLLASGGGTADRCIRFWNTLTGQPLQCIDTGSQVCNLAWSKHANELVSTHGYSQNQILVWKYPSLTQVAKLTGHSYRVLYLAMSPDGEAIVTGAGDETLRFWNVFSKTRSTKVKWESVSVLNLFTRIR
UniProt Q96QD9: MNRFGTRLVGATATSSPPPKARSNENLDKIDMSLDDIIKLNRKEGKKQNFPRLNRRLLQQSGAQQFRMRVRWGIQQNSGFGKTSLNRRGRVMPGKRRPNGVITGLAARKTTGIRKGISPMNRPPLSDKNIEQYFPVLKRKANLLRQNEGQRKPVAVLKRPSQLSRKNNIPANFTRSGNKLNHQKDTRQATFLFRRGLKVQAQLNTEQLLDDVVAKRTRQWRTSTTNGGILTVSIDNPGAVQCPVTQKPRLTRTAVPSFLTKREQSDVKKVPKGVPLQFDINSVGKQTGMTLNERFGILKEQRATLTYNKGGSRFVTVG
UniProt Q8TET4: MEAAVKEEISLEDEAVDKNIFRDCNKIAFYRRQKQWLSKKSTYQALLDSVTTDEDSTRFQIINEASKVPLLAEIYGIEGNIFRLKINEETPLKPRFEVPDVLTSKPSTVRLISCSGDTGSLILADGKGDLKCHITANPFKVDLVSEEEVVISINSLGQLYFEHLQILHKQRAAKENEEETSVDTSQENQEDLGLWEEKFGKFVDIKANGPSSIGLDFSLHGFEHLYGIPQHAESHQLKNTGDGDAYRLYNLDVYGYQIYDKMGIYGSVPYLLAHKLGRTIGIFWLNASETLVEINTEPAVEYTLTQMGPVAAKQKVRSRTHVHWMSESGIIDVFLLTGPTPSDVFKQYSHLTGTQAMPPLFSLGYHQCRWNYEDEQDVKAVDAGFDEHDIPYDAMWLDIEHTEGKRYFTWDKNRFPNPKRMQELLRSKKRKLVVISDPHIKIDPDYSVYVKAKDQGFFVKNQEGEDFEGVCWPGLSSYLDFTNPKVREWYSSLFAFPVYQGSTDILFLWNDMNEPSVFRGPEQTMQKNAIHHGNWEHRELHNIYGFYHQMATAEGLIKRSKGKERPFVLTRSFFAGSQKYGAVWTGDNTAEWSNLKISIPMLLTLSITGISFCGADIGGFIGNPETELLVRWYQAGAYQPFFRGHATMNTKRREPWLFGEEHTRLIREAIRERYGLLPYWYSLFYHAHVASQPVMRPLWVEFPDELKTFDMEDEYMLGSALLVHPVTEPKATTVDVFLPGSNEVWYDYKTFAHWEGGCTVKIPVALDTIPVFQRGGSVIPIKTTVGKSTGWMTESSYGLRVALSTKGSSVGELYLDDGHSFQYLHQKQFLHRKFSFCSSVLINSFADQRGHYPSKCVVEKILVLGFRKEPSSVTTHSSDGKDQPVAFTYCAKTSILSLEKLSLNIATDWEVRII
FOXO3B, A0A2Z4LIS9, UniProt A0A2Z4LIS9, whole entry, looked up: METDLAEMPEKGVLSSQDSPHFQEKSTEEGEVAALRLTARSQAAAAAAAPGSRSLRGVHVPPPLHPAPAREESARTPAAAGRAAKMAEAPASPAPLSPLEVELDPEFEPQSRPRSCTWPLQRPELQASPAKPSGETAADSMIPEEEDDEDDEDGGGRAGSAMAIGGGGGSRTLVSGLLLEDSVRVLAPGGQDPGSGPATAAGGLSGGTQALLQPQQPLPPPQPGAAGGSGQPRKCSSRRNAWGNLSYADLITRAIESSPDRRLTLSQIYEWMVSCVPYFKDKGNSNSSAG
UniProt P19526, whole entry, looked up: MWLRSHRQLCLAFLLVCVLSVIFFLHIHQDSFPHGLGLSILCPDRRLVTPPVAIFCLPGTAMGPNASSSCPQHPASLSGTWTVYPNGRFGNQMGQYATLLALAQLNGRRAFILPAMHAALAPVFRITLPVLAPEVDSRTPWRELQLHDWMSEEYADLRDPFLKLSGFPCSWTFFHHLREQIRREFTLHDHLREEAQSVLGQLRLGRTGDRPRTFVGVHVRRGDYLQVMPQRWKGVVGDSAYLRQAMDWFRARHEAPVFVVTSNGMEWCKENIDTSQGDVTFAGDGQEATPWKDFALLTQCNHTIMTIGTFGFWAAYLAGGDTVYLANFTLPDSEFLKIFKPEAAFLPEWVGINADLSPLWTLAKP
UniProt Q9NXC2: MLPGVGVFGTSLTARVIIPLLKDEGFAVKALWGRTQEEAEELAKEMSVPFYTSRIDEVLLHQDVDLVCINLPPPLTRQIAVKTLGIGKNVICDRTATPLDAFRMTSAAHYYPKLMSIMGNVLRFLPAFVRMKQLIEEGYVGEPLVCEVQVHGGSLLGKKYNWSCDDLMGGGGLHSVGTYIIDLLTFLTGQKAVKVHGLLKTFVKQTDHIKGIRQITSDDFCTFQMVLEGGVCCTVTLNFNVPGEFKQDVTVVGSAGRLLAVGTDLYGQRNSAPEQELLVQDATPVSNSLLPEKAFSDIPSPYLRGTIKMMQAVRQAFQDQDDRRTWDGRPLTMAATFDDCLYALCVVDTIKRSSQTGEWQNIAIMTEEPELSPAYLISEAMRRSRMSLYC

Tests used:
Assay in all cases: log2 fold change, soluble protein after heating vs DMSO (PISA); higher = thermal stabilisation; K562 lysate, 10 uM; active = over 0.2 and 3.5 SD of the protein, either way, in both replicates (recomputed)
encorafenib = compound: COC(=O)N[C@@H](C)CNc1nccc(-c2cn(C(C)C)nc2-c2cc(Cl)cc(NS(C)(=O)=O)c2F)n1 [encorafenib]
In short: (§1)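 Thermal stability, expressed as log-two fold change relative to solvent controls, is given from duplicates. Crude K562 extract in PBS pH 7.4 with 1 mM MgCl2, at 1 mg/mL protein, was treated with 10 μM compound for 30 min and heated in aliquots for 3 min across 48°C-58°C. After pooling, adjustment to 0.5% NP-40 at 4°C and centrifugation at 21,000xg for 90 min, supernatant protein was measured by TMTpro 16plex LC-MS/MS with channel sums equalised.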

[1] = compound: COC(=O)[C@H](CCSC)NC(=O)C1=C(C=C(C=C1)NC[C@H](CS)N)C2=CC=CC=C2
In short: as §1

pictilisib = compound: CS(=O)(=O)N1CCN(Cc2cc3nc(-c4cccc5[nH]ncc45)nc(N4CCOCC4)c3s2)CC1 [pictilisib]
In short: as §1

crizotinib = compound: C[C@@H](Oc1cc(-c2cnn(C3CCNCC3)c2)cnc1N)c1c(Cl)ccc(F)c1Cl [crizotinib]
In short: as §1

tozasertib = compound: Cc1cc(Nc2cc(N3CCN(C)CC3)nc(Sc3ccc(NC(=O)C4CC4)cc3)n2)n[nH]1 [tozasertib]
In short: as §1

doramapimod = compound: Cc1ccc(-n2nc(C(C)(C)C)cc2NC(=O)Nc2ccc(OCCN3CCOCC3)c3ccccc23)cc1 [doramapimod]
In short: as §1

bafetinib = compound: Cc1ccc(NC(=O)c2ccc(CN3CC[C@H](N(C)C)C3)c(C(F)(F)F)c2)cc1Nc1nccc(-c2cncnc2)n1 [bafetinib]
In short: as §1

Tubastatin A = compound: CN1CCc2c(c3ccccc3n2Cc2ccc(C(=O)NO)cc2)C1 [Tubastatin A]
In short: as §1

[2] = compound: CNc1nc(-c2ccc3c(N)n[nH]c3c2)cc(N2C[C@@H](C(=O)NC3CCCCC3)CC[C@H]2C)n1
In short: as §1

duvelisib = compound: C[C@H](Nc1ncnc2nc[nH]c12)c1cc2cccc(Cl)c2c(=O)n1-c1ccccc1 [duvelisib]
In short: as §1

alvocidib = compound: CN1CC[C@H](c2c(O)cc(O)c3c(=O)cc(-c4ccccc4Cl)oc23)[C@H](O)C1 [alvocidib]
In short: as §1

[3] = compound: COc1cc2nc(-c3cc(F)ccc3O)nc(N[C@@H]3CNC[C@H]3C(C)(C)O)c2cc1OC
In short: as §1

lapatinib = compound: CS(=O)(=O)CCNCc1ccc(-c2ccc3ncnc(Nc4ccc(OCc5cccc(F)c5)c(Cl)c4)c3c2)o1 [lapatinib]
In short: as §1

[4] = compound: C[C@H](C1=CC=C(C=C1)C(=O)NC2=C3C=CNC3=NC=C2)N
In short: as §1

gandotinib = compound: Cc1cc(Nc2cc(CN3CCOCC3)c3nc(C)c(Cc4ccc(Cl)cc4F)n3n2)n[nH]1 [gandotinib]
In short: as §1

[5] = compound: Cc1cccc(CC(=O)N2CCc3c2ccc(-c2cn(C)c4ncnc(N)c24)c3F)n1
In short: as §1

[6] = compound: CNC(=O)C1=CC=CC=C1NC2=NC(=NC=C2Cl)NC3=C(C=C(C=C3)N4CCOCC4)OC
In short: as §1

alisertib = compound: COc1cc(Nc2ncc3c(n2)-c2ccc(Cl)cc2C(c2c(F)cccc2OC)=NC3)ccc1C(=O)O [alisertib]
In short: as §1

gefitinib = compound: COc1cc2ncnc(Nc3ccc(F)c(Cl)c3)c2cc1OCCCN1CCOCC1 [gefitinib]
In short: as §1

defactinib = compound: CNC(=O)c1ccc(Nc2ncc(C(F)(F)F)c(NCc3nccnc3N(C)S(C)(=O)=O)n2)cc1 [defactinib]
In short: as §1

Measured: log2 fold change

GALNT3 (UniProt Q14435)
inactive: encorafenib 0.065 | [1] -0.002 | pictilisib -0.026 | crizotinib -0.039 | tozasertib -0.032 | doramapimod -0.182 | bafetinib -0.167

GAB3 isoform 2 (UniProt Q8WWW8)
inactive: Tubastatin A -0.007 | [2] -0.091 | encorafenib 0.123 | [1] 0.083 | crizotinib -0.054 | duvelisib -0.037 | tozasertib -0.032 | doramapimod 0.162

FZD5 (UniProt Q13467)
inactive: alvocidib -0.423 | [2] -0.038 | [3] -0.032 | lapatinib 0.045 | pictilisib -0.062 | [4] -0.156 | duvelisib -0.105 | gandotinib 0.259 | bafetinib -0.107 | [5] 0.216

G0S2 (UniProt P27469)
inactive: [6] -0.154 | encorafenib -0.085 | [1] -0.233 | alisertib 0.031 | gefitinib 0 | crizotinib -0.013 | tozasertib -0.091 | doramapimod 0.056

FUT4 (UniProt P22083)
inactive: alvocidib -0.071 | [2] -0.014 | encorafenib 0.009 | [1] -0.016 | alisertib -0.028 | gefitinib -0.065 | crizotinib 0.017 | [4] -0.069 | duvelisib 0.006 | gandotinib 0.124 | tozasertib 0.128 | doramapimod 0.026 | [5] 0.123

GEN1 (UniProt Q17RS7)
inactive: Tubastatin A -0.017 | defactinib -0.215 | [2] -0.148 | encorafenib 0 | [1] 0.163 | alisertib 0.202 | gefitinib 0.141 | crizotinib 0.182 | duvelisib 0.175 | tozasertib 0.053 | doramapimod 0.139

GATM (UniProt P50440)
inactive: encorafenib -0.424 | [1] 0.308 | tozasertib -0.011

GAGE1 (UniProt Q13065)
inactive: Tubastatin A -0.066 | encorafenib 0.282 | [1] -0.194 | [3] -0.013 | lapatinib 0.012 | pictilisib -0.05 | tozasertib -0.079 | bafetinib 0.037

Reprinted from the listing (two entries):
FUT4 (UniProt P22083)
inactive: alvocidib -0.071 | [2] -0.014 | encorafenib 0.009 | [1] -0.016 | alisertib -0.028 | gefitinib -0.065 | crizotinib 0.017 | [4] -0.069 | duvelisib 0.006 | gandotinib 0.124 | tozasertib 0.128 | doramapimod 0.026 | [5] 0.123

GEN1 (UniProt Q17RS7)
inactive: Tubastatin A -0.017 | defactinib -0.215 | [2] -0.148 | encorafenib 0 | [1] 0.163 | alisertib 0.202 | gefitinib 0.141 | crizotinib 0.182 | duvelisib 0.175 | tozasertib 0.053 | doramapimod 0.139

Carrying on:

FUT8 (UniProt Q9BYC5)
inactive: Tubastatin A 0.299 | [6] 0.131 | encorafenib -0.076 | [1] -0.015 | [3] -0.123 | lapatinib 0.204 | pictilisib -0.054 | tozasertib 0.148 | bafetinib 0

FRAS1 isoform 2 (UniProt Q86XX4)
inactive: defactinib -0.051 | [2] 0.083 | crizotinib -0.247 | duvelisib 0.032 | doramapimod 0.204

GFI1B (UniProt Q5VTD9)
inactive: Tubastatin A -0.279 | [6] 0.081 | [2] 0.021 | alisertib 0.287 | [3] 0.018 | gefitinib -0.001 | lapatinib 0.033 | crizotinib 0.017 | duvelisib 0.006 | doramapimod 0.009

FTSJ1 isoform 2 (UniProt Q9UET6)
inactive: alvocidib 0.015 | defactinib 0.028 | encorafenib -0.027 | [1] 0.047 | [3] -0.016 | lapatinib 0.013 | [4] -0.129 | gandotinib 0.077 | tozasertib -0.175 | [5] 0.079

GARS1 (UniProt H7C443)
inactive: [3] 0.065 | lapatinib -0.075 | pictilisib 0.014 | bafetinib -0.184

GAPVD1 (UniProt Q14C86)
inactive: [3] 0.071 | lapatinib 0.03 | pictilisib -0.138 | bafetinib 0.014

FOXL2 (UniProt P58012)
active: bafetinib -0.703
inactive: Tubastatin A -0.049 | [6] 0.031 | [2] 0.005 | encorafenib 0.079 | [1] 0.138 | [3] 0.015 | lapatinib -0.25 | pictilisib 0.091 | duvelisib 0.094 | tozasertib -0.092

FOXRED2 (UniProt Q8IWF2)
inactive: Tubastatin A 0.21 | [6] 0.159 | defactinib 0.033 | [2] 0.133 | encorafenib -0.173 | [1] -0.08 | alisertib 0.024 | gefitinib -0.091 | crizotinib 0.074 | duvelisib -0.126 | tozasertib -0.044 | doramapimod 0.019

FOXO4 (UniProt P98177)
inactive: alvocidib -0.001 | pictilisib -0.07 | [4] 0.061 | gandotinib -0.105 | bafetinib 0.054 | [5] -0.07

FZR1 isoform 2 (UniProt Q9UM11)
inactive: alvocidib -0.168 | pictilisib -0.204 | [4] -0.021 | gandotinib -0.048 | bafetinib -0.019 | [5] 0.034

FYTTD1 (UniProt Q96QD9)
inactive: [6] 0.017 | defactinib -0.092 | [2] 0.046 | encorafenib 0.055 | [1] 0.055 | pictilisib -0.086 | crizotinib -0.037 | duvelisib 0.01 | tozasertib -0.055 | doramapimod -0.064 | bafetinib 0.003

GANC (UniProt Q8TET4)
inactive: Tubastatin A 0.012 | [6] -0.003 | [2] 0.014 | encorafenib -0.03 | [1] -0.235 | [3] 0.061 | lapatinib -0.112 | crizotinib 0.047 | duvelisib 0.033 | tozasertib -0.204 | doramapimod -0.097

FPGS (UniProt Q05932)
inactive: Tubastatin A 0.006 | [2] 0.088 | encorafenib -0.204 | [1] -0.057 | alisertib 0.035 | gefitinib -0.015 | duvelisib -0.319 | tozasertib -0.018

FOXO3B, A0A2Z4LIS9
inactive: defactinib -0.006 | [2] 0.07 | duvelisib 0.036

GALNT4 (UniProt Q8N4A0)
inactive: alvocidib -0.02 | defactinib 0.001 | [2] -0.106 | encorafenib -0.022 | [1] -0.104 | [3] 0.059 | lapatinib -0.025 | pictilisib 0.065 | crizotinib -0.225 | [4] -0.05 | duvelisib 0.013 | gandotinib 0.018 | tozasertib 0.096 | doramapimod -0.094 | bafetinib -0.001 | [5] 0.033

FUT1 (UniProt P19526)
inactive: alvocidib 0.003 | crizotinib -0.003 | [4] -0.029 | gandotinib -0.132 | doramapimod -0.09 | [5] -0.085

FSCN2 isoform 2 (UniProt O14926)
inactive: defactinib -0.131 | encorafenib -0.022 | [1] -0.14 | crizotinib 0.095 | tozasertib 0.128 | doramapimod -0.031

GFOD1 (UniProt Q9NXC2)
inactive: Tubastatin A -0.049 | [6] -0.125 | [3] 0.137 | lapatinib 0.186
